Source: patent US8962057B2, “Methods for improving taste and oral care compositions with improved taste” (The Procter & Gamble Company, priority 2009, dated 2015)
At least one compound was matched to its structure with a doubt left.

Key:
[1] = cited from earlier work
[2] = Burning sensation on the standard Scoville hotness scale

| SMILES | cooling threshold (concentration where the cooling effect could be clearly recognized) [1] | 'Hotness' (as log Scoville Units) [2] |
| --- | --- | --- |
| CC(C)[C@@H]1CC[C@@H](C)C[C@H]1O [L-menthol] | about 800 ppb |  |
| O=C(/C=C/C=C/c1ccc2c(c1)OCO2)N1CCCCC1 [Piperine] |  | 5.3 log Scoville Units |
